Data: the supplement of paper PMC10849652
The list shows a part of the results.

Protein sequences, listed by entry. Tags and fused reporters are not part of them. Lines headed by an entry give the natural chain unless they say otherwise; changes in a name come on top.
UniProt Q07955, whole entry, looked up: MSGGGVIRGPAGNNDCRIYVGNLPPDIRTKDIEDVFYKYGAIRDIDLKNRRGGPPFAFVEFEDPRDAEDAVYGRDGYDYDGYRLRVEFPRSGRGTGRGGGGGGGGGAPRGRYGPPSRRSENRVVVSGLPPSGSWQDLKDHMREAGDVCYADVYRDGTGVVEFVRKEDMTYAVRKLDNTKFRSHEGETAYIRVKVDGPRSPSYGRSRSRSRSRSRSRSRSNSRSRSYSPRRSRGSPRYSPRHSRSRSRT
UniProt Q9UBP0: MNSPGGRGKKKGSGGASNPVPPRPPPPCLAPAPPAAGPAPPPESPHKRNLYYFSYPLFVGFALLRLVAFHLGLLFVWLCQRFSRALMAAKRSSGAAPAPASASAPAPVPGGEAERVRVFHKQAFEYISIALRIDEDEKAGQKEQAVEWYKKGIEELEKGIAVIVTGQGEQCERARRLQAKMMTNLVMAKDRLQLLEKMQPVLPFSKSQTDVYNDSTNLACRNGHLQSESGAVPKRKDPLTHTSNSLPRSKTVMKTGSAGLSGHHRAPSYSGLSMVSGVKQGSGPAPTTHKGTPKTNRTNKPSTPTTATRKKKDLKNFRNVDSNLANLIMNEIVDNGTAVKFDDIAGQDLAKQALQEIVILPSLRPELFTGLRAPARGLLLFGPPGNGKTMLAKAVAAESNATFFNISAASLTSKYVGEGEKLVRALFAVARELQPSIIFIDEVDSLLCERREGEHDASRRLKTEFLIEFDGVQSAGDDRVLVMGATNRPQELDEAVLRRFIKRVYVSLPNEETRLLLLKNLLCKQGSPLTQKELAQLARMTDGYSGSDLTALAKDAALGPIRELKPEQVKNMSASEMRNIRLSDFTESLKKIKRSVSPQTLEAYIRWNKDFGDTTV
UniProt Q16842: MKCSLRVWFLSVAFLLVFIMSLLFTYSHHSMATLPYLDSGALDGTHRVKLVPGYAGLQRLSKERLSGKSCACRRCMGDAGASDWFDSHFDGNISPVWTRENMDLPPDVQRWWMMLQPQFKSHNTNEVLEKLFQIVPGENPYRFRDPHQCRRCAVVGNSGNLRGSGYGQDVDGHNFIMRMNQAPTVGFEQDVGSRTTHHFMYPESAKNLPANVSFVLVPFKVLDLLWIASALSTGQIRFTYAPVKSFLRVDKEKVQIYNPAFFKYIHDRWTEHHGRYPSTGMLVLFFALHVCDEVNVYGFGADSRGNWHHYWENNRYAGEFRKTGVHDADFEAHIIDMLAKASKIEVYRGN
UniProt Q8N0X7: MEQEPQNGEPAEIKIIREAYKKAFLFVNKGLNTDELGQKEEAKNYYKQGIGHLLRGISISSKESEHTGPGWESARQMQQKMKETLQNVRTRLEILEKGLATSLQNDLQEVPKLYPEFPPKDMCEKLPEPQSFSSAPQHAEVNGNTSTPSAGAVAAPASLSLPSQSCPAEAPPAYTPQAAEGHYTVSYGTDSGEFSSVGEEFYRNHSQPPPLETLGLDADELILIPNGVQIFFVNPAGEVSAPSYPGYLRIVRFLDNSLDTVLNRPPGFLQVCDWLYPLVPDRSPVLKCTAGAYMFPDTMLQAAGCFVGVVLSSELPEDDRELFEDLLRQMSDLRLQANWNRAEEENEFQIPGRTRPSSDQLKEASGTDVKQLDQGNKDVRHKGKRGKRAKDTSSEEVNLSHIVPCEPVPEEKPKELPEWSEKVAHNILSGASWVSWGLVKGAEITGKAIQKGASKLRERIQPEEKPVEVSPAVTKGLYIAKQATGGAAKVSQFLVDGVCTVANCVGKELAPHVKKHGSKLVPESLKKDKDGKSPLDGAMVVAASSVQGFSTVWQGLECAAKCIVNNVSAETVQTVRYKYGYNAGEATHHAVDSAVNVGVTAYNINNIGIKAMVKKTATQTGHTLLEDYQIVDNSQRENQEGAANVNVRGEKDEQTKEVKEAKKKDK
UniProt Q9P2P6: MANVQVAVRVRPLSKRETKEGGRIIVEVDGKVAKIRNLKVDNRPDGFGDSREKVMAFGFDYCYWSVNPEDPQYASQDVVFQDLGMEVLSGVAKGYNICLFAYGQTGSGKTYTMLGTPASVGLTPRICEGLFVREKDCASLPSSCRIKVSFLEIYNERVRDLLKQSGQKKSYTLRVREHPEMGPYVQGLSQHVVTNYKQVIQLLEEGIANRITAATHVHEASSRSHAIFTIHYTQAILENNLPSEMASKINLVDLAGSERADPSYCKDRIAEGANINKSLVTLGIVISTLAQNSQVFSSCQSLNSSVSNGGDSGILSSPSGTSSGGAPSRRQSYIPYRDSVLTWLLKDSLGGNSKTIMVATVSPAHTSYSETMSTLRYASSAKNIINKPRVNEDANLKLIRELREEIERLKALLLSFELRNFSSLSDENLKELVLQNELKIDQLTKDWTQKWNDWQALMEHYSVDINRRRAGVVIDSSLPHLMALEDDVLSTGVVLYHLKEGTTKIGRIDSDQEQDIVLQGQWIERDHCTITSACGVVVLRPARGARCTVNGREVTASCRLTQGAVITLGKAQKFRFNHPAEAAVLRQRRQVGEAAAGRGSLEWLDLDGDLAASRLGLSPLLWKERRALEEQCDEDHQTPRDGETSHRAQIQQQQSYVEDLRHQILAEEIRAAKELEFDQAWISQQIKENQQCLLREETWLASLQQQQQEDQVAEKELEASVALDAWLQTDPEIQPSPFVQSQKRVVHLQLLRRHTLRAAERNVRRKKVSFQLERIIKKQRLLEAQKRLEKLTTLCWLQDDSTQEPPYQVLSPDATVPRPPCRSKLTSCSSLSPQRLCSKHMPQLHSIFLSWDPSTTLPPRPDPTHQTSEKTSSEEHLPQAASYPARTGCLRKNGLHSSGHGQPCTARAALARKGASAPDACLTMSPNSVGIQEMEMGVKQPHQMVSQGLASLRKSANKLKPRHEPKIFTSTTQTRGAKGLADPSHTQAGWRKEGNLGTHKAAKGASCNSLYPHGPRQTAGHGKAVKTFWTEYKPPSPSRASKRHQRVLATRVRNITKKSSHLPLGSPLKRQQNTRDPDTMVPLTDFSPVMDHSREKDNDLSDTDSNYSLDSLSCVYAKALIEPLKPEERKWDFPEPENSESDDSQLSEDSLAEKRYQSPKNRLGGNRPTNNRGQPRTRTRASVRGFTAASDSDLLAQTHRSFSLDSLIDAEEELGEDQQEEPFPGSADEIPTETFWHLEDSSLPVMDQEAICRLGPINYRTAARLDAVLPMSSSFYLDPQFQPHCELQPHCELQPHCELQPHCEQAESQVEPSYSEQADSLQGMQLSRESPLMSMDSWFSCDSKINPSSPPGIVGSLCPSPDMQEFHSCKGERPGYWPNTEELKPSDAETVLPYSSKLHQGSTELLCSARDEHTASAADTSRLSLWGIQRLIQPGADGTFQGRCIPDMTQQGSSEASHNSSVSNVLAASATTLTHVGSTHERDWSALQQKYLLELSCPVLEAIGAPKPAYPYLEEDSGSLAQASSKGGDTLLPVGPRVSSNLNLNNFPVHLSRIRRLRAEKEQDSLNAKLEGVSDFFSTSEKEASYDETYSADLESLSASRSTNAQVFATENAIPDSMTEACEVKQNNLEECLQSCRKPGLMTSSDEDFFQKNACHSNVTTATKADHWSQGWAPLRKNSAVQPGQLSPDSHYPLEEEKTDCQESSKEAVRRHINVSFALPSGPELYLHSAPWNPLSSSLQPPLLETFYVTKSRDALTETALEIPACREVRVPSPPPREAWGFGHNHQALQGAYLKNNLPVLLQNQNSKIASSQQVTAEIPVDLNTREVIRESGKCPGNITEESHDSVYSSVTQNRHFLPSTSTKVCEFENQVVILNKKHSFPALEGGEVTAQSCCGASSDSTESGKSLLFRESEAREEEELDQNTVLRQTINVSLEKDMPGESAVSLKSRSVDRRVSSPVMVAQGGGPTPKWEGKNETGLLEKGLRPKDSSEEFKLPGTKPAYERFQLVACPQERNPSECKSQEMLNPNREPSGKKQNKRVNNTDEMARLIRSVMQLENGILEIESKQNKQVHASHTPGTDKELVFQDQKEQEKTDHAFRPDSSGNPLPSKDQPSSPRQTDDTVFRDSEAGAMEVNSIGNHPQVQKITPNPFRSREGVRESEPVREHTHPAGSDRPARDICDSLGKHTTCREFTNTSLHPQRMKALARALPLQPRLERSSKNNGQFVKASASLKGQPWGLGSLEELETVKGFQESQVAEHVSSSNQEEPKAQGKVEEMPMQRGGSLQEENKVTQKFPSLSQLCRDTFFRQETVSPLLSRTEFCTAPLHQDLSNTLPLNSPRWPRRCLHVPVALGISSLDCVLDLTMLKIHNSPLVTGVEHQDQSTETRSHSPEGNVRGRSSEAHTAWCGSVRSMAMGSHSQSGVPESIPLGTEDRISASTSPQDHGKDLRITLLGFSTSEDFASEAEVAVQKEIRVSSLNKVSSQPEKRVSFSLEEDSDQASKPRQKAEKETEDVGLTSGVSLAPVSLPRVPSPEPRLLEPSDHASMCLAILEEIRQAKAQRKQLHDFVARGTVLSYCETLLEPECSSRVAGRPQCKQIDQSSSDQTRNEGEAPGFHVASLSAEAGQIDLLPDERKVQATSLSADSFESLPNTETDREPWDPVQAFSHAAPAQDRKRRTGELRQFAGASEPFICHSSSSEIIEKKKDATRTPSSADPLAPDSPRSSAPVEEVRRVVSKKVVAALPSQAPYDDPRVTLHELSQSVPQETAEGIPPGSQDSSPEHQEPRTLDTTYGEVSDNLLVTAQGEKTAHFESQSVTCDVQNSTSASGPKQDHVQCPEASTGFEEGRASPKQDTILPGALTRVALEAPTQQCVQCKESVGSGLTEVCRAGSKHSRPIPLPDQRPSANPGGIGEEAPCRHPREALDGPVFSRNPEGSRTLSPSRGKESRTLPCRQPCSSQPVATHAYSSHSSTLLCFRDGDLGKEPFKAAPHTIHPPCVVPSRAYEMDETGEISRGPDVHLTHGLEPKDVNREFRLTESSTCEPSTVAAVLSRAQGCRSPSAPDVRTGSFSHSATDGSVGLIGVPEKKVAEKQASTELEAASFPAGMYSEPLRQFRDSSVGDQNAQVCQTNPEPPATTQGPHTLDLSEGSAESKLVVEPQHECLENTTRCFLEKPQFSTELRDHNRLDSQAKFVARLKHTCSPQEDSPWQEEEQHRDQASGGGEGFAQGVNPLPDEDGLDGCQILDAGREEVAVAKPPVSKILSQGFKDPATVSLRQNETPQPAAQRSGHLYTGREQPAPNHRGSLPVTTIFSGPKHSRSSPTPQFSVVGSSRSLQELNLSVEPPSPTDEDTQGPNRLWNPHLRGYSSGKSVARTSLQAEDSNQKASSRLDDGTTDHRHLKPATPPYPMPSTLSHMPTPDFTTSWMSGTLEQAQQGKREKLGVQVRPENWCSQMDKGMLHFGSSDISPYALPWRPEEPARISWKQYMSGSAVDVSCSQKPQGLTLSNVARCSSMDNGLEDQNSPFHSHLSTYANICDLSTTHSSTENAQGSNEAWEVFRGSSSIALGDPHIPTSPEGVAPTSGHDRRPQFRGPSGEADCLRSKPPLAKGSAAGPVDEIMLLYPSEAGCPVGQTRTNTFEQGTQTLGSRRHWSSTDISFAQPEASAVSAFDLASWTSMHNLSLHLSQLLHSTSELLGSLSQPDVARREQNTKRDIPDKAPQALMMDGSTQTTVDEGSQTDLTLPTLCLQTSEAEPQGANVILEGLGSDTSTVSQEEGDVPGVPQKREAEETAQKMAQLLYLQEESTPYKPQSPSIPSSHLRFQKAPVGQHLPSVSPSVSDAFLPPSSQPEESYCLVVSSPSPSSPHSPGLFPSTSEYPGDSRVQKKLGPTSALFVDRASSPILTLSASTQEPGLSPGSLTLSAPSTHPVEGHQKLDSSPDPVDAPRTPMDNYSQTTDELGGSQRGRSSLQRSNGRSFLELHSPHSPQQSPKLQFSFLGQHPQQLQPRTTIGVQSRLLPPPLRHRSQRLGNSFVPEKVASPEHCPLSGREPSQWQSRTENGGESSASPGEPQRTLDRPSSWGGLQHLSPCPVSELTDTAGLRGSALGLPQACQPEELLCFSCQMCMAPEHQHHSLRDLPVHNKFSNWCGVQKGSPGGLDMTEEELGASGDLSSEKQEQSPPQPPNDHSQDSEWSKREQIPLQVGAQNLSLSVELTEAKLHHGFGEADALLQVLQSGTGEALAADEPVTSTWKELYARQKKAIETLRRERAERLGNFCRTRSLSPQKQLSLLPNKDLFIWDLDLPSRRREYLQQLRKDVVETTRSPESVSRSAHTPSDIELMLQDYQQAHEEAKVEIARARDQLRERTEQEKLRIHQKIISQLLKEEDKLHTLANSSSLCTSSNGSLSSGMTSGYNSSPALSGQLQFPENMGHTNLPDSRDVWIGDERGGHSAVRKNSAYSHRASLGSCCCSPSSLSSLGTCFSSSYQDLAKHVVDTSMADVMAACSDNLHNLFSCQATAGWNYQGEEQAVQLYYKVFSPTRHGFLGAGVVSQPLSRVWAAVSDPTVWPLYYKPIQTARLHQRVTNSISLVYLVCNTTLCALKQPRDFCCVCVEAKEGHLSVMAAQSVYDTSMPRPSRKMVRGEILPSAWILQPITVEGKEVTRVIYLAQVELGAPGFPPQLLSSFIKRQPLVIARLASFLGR

compound: Cc1cc(Nc2cc(N3CCN(C)CC3)nc(Sc3ccc(NC(=O)C4CC4)cc3)n2)n[nH]1 [tozasertib]; experiment: log2 fold change, soluble protein after heating vs DMSO (PISA); higher = thermal stabilisation; K562 cells, 10 uM, 30 min; active = over 0.2 and 3.5 SD of the protein, either way, in both replicates (recomputed)
Outline: (§1)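 K562 cells at 2×10^6 cells/mL were treated for 30 min with 10 μM compound, and aliquots were heated for 3 min over 48°C-58°C before pooling. Extraction used PBS with 0.5% NP-40 at 4°C, and soluble protein was the supernatant after 21,000xg for 90 min, measured by TMTpro 16plex LC-MS/MS with channel sums equalised. Thermal stability values, relative to control samples and from duplicates, are log2 fold changes.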

log2 fold change, inactive:
SPIRE2 (UniProt Q8WWL2) 0.131, SPHK1 isoform 2 (UniProt Q9NYA1) -0.006, SPPL2A (UniProt Q8TCT8) -0.03, SRA1 (UniProt Q9HD15) 0.029, STAG1 (UniProt Q8WVM7) 0.035, SRP54 (UniProt P61011) 0.011, SRSF1 (UniProt Q07955) -0.038, STAT1 (UniProt P42224) 0.128, ST6GALNAC1 (UniProt Q9NSC7) 0.061, SPRYD4 (UniProt Q8WW59) 0.003, SRGAP2 (UniProt O75044) 0.027, SRPK2 isoform 2 (UniProt P78362) -0.002, STK24 (UniProt Q9Y6E0) -0.027, SPECC1L (UniProt Q69YQ0) 0.001, SSU72 (UniProt Q9NP77) 0.169, SPTLC1 (UniProt O15269) 0.006, STAU2 (UniProt Q9NUL3) -0.005, SPATA5L1 (UniProt Q9BVQ7) -0.007

compound: Cc1cc(SCc2sc(-c3ccc(C(F)(F)F)cc3)nc2C)ccc1OCC(=O)O; experiment: as above
Outline: as §1

log2 fold change, inactive:
SPAST (UniProt Q9UBP0) 0.15, SPIRE2 (UniProt Q8WWL2) -0.028, SPHK1 isoform 2 (UniProt Q9NYA1) 0.035, SPPL2A (UniProt Q8TCT8) -0.075, SRA1 (UniProt Q9HD15) 0.019, STIM1 (UniProt Q13586) 0.057, SPTBN1 (UniProt Q01082) 0.094, SRSF3 (UniProt P84103) -0.024, SPECC1 (UniProt Q5M775) -0.036, STAG1 (UniProt Q8WVM7) 0.024, SPPL2B (UniProt Q8TCT7) -0.022, SRP54 (UniProt P61011) 0.04, ST3GAL2 (UniProt Q16842) 0.033, SRSF1 (UniProt Q07955) -0.024, STAT1 (UniProt P42224) 0.114, STAT5B (UniProt P51692) 0.097, ST6GALNAC1 (UniProt Q9NSC7) 0.043, STEAP3 isoform 2 (UniProt Q658P3) 0.012, SPRYD4 (UniProt Q8WW59) -0.007, SRGAP2 (UniProt O75044) 0.064, SRPK2 isoform 2 (UniProt P78362) 0.071, SPART (UniProt Q8N0X7) 0.055, STK24 (UniProt Q9Y6E0) -0.02, STAT3 (UniProt P40763) 0.088, SPECC1L (UniProt Q69YQ0) 0.034, SSU72 (UniProt Q9NP77) 0.117, SPTLC1 (UniProt O15269) 0.071, SRFBP1 (UniProt Q8NEF9) -0.028, STAU2 (UniProt Q9NUL3) 0.031, STAT5A (UniProt P42229) 0.14, SRSF4 (UniProt Q08170) 0.031, SRP72 (UniProt O76094) 0.154, SRSF7 (UniProt Q16629) -0.025, SSR4 (UniProt P51571) 0.033, SPTBN4 (UniProt Q9H254) -0.003, SPATA5L1 (UniProt Q9BVQ7) -0.041, SPG11 (UniProt Q96JI7) 0, STAT6 (UniProt P42226) -0.123, STARD9 (UniProt Q9P2P6) 0.028, SREK1 isoform 2 (UniProt Q8WXA9) 0.105
